Reference: the supplement of paper PMC10849652
The list shows a part of the results.

Chains of the proteins cited; added tags and fusions are not shown. Lines headed by an entry give the natural chain unless they say otherwise; changes in a name come on top.
UniProt Q9BQG0: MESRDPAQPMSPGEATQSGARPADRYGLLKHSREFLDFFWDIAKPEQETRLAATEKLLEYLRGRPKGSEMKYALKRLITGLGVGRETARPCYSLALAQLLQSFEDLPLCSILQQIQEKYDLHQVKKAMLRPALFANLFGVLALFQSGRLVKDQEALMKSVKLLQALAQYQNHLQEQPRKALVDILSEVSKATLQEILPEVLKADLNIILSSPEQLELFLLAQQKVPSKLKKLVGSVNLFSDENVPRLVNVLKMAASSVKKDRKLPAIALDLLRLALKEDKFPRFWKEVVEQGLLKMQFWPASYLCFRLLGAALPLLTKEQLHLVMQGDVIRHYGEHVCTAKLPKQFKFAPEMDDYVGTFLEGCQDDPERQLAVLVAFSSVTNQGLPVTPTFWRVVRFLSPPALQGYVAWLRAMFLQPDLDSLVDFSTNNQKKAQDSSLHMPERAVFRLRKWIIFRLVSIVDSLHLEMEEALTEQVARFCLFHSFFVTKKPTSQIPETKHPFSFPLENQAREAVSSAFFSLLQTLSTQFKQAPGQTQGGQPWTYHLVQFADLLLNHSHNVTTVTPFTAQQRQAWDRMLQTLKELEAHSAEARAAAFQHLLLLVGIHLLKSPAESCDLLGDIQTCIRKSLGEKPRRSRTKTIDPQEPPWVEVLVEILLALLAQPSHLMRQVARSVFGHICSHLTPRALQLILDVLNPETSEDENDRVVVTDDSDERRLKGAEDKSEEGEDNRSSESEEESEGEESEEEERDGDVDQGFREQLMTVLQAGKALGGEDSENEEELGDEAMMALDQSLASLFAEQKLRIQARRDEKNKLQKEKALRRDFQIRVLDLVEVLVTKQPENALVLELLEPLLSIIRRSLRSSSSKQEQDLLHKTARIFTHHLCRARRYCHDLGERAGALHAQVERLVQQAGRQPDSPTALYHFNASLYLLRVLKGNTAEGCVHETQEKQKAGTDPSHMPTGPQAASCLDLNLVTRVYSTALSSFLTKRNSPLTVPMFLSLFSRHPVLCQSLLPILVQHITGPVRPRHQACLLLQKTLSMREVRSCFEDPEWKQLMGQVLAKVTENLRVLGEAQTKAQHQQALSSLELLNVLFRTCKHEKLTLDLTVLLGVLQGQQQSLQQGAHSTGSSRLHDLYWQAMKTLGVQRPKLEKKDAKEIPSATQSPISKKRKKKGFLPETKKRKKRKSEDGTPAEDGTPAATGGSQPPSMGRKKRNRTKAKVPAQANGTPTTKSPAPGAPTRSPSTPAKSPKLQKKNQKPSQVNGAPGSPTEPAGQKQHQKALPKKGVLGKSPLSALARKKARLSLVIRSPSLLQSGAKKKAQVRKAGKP
UniProt Q2M296: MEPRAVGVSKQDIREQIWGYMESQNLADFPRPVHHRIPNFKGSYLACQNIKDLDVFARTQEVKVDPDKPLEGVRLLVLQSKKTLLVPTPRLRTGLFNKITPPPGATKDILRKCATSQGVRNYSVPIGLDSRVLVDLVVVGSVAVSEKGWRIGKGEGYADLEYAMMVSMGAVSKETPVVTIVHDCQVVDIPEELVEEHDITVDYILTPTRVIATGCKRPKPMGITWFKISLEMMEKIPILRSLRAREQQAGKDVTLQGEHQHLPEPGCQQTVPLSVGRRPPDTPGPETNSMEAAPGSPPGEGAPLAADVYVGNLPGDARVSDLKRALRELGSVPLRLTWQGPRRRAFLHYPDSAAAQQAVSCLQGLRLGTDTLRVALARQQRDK
UniProt P08590, whole entry, looked up: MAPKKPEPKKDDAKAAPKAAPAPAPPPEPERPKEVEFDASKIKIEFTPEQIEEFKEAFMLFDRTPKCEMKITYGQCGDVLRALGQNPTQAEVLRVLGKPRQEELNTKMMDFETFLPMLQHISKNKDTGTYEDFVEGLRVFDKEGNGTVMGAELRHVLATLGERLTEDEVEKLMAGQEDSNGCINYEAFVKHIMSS
UniProt Q9UGC7: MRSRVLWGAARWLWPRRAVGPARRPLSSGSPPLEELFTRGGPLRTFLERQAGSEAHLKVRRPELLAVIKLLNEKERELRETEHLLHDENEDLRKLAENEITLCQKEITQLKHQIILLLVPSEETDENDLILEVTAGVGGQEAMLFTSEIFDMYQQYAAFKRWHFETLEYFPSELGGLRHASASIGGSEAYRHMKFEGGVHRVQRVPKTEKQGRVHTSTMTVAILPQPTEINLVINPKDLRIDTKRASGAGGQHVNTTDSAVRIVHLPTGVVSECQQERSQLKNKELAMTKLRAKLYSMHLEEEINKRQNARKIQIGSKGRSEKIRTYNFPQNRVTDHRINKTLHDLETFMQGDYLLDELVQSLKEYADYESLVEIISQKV
UniProt Q93083: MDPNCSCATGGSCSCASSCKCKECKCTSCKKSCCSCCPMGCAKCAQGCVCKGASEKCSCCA
UniProt Q13126: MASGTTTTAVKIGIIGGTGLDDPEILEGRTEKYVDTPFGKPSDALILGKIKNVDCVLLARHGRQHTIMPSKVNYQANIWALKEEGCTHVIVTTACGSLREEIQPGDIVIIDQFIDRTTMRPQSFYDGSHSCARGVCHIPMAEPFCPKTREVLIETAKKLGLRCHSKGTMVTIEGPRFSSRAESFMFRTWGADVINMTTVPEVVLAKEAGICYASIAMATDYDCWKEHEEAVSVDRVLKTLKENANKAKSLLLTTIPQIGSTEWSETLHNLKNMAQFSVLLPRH
UniProt P03891, whole entry, looked up: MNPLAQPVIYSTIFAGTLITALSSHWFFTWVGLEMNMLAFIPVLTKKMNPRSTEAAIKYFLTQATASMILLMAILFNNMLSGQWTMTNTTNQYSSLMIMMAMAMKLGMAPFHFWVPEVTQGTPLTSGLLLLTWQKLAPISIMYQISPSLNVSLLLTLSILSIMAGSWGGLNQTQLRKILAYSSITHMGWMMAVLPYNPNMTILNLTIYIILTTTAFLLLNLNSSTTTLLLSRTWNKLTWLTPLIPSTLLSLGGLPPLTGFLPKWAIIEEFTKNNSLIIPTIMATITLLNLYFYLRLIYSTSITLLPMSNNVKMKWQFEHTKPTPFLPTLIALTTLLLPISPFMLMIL
UniProt Q96QG7: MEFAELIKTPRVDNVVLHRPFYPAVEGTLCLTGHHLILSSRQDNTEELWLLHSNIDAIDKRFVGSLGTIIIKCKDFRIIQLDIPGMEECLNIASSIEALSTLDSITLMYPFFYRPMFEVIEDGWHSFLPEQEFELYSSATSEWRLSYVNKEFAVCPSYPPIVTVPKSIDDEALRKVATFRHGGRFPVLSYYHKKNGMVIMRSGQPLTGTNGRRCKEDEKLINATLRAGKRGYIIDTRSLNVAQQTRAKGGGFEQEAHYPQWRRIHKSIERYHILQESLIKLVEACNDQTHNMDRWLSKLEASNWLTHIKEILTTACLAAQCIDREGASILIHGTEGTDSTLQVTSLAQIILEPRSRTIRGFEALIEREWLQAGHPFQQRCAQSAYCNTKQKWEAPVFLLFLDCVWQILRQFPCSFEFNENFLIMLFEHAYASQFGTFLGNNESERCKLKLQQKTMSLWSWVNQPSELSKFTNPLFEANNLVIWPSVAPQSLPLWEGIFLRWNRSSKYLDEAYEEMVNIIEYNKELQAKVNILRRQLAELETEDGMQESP
UniProt Q9UJ68: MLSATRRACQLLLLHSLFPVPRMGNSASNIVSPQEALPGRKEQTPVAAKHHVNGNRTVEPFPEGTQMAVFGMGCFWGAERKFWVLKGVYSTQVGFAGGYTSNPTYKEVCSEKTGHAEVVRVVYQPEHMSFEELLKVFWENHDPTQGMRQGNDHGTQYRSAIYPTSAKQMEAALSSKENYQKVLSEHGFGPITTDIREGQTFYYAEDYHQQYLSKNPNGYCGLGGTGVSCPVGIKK
UniProt Q68DK7: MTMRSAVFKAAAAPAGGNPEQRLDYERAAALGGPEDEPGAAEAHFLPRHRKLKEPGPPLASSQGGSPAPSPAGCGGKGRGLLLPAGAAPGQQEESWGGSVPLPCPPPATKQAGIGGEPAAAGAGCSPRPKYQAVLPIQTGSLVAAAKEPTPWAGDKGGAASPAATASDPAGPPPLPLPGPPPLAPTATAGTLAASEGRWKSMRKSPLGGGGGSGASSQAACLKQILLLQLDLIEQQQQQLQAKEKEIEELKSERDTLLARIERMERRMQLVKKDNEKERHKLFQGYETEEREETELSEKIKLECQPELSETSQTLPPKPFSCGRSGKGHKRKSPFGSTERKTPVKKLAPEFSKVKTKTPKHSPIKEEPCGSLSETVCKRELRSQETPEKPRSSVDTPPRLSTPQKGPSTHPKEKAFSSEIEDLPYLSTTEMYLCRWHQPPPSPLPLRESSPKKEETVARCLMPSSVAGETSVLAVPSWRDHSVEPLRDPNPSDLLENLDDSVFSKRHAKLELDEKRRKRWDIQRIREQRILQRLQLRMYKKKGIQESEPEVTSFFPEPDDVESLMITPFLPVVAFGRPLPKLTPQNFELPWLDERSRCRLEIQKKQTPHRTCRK
UniProt P13533, whole entry, looked up: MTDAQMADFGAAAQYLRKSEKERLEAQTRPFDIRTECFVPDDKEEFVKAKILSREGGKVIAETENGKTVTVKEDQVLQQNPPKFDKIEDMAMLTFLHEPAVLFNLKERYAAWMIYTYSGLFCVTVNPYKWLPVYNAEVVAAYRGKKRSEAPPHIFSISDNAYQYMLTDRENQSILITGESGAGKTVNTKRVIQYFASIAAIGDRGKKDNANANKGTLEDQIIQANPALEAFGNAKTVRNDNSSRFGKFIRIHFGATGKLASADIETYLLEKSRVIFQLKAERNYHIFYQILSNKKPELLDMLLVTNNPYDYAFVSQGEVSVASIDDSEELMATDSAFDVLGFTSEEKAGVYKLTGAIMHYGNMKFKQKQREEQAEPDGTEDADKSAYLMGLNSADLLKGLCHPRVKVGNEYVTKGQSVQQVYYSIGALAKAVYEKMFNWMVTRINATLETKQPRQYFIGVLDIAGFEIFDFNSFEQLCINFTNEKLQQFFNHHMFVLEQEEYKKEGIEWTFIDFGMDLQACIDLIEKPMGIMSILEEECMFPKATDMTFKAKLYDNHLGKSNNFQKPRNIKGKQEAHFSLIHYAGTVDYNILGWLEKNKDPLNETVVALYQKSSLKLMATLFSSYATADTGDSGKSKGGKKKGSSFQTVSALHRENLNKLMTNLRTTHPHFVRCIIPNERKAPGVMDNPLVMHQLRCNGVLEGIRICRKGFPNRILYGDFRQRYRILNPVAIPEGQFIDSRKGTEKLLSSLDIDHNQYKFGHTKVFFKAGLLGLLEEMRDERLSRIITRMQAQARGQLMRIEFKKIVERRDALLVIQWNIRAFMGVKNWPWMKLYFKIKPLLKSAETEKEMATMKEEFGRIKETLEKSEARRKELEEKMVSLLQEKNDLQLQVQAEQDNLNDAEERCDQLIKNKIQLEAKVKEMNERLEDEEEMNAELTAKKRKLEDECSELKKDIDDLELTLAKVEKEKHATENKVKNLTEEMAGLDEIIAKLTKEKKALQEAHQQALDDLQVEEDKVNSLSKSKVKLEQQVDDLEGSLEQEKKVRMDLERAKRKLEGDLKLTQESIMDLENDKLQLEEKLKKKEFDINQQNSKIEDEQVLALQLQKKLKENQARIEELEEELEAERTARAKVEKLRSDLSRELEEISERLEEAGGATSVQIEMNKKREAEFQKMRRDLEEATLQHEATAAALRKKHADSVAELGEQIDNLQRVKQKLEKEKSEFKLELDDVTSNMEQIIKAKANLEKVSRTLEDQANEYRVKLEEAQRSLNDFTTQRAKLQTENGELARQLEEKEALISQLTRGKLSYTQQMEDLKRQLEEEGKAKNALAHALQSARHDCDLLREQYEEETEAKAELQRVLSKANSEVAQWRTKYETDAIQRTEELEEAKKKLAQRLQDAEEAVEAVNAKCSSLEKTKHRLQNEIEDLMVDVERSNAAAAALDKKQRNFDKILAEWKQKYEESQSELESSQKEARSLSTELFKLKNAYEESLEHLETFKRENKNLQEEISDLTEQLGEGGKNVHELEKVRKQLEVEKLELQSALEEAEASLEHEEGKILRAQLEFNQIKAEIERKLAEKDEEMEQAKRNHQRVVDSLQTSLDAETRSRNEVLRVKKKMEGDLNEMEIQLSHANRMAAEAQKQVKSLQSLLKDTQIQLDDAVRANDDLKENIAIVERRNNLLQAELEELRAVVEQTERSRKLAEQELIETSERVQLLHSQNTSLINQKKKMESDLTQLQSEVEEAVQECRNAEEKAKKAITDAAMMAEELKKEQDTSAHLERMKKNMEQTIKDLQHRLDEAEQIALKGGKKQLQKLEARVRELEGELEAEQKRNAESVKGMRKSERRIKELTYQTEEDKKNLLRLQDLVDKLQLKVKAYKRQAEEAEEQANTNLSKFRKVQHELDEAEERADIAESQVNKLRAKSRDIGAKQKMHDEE

Compound: CN1CCN(CCOc2cc(OC3CCOCC3)c3c(Nc4c(Cl)ccc5c4OCO5)ncnc3c2)CC1 [saracatinib]
Assay: log2 fold change, soluble protein after heating vs DMSO (PISA); higher = thermal stabilisation; K562 cells, 10 uM, 30 min; active = over 0.2 and 3.5 SD of the protein, either way, in both replicates (recomputed)
Procedure, shortened: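 For each measurement, 10 μM compound was applied for 30 min to K562 cells at 2×10^6 cells/mL. Aliquots were heated for 3 min across 48°C-58°C, pooled, and extracted in PBS with 0.5% NP-40 at 4°C; the supernatant after 21,000xg for 90 min was soluble protein. This was quantified by TMTpro 16plex LC-MS/MS with channel sums equalised, and thermal stability was reported relative to control samples from duplicates, on a log2 fold-change scale.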

Row | Target | log2 fold change
1 | MYBBP1A isoform 2 (UniProt Q9BQG0) | inactive: 0.063
2 | MTHFSD (UniProt Q2M296) | inactive: -0.187
3 | MYL3 (UniProt P08590) | inactive: -0.011
4 | MYO9A isoform 4 (UniProt B2RTY4) | inactive: -0.11
5 | MTRF1L (UniProt Q9UGC7) | inactive: 0.072
6 | MT1L (UniProt Q93083) | inactive: 0.264
7 | MTAP isoform 2 (UniProt Q13126) | inactive: 0.108
8 | MT-ND2 (UniProt P03891) | inactive: -0.183
9 | MTMR9 (UniProt Q96QG7) | inactive: 0.065
10 | MSRA (UniProt Q9UJ68) | inactive: -0.207
11 | MYO19 (UniProt Q96H55) | inactive: -0.066
12 | MYH2 (UniProt Q9UKX2) | inactive: 0.078
13 | MTG1 (UniProt Q9BT17) | inactive: 0.007
14 | MTHFD1L (UniProt B7ZM99) | inactive: -0.009
15 | MSL1 (UniProt Q68DK7) | inactive: -0.026
16 | MYH6 (UniProt P13533) | inactive: 0.003

Rewritten in markdown: part of the list above.

| Row | Target | log2 fold change |
| --- | --- | --- |
| 5 | MTRF1L (UniProt Q9UGC7) | inactive: 0.072 |
| 6 | MT1L (UniProt Q93083) | inactive: 0.264 |
